In PubChem BioAssay (EPA / NIEHS):
The inconclusive results got no clear call from the source; some entries with a clear call stand among them for comparison. Where the call is inconclusive, the potency comes from a doubtful curve fit. Activity calls are given as the source filed them. The calls were made as follows: active = hit-call score of the fitted dose curve at least 0.9, where 1 is the maximum; inconclusive = response in the unintended direction; inactive = score below 0.9.

Amino acid sequences for entries named in this document (tags omitted).
UniProt Q92731, whole entry, looked up: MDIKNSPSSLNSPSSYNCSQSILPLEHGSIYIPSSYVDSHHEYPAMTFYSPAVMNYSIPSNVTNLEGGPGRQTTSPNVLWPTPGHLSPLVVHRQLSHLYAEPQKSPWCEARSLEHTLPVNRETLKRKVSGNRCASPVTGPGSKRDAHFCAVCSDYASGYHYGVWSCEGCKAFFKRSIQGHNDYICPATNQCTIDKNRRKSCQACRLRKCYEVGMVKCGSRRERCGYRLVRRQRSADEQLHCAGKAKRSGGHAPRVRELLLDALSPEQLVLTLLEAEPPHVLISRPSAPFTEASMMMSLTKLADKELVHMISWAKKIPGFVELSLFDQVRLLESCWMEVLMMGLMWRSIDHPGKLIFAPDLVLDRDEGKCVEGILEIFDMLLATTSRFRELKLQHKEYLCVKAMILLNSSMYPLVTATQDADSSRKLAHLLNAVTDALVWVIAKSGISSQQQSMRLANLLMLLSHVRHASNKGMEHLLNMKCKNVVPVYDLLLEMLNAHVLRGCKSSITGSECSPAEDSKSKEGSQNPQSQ

Target: Estrogen receptor beta (Homo sapiens) (UniProt Q92731)
Assay: OT_ER_ERbERb_0480: Odyssey Thera (OT) 8-hour HEK293T Protein-Complementation Assay for Estrogen Receptor-beta/-beta Homodimer (AID 2283357);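 also: active means signal gain over DMSO baseline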
Procedure, shortened: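 Homodimerization of ER-beta LBD measured by protein-fragment complementation in HEK293T; 8 h dosing; fixed, Draq5 counterstain; fluorescence intensity gain over DMSO baseline, positive fitting direction; laser scanning cytometry.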

**Q.** How did the AC50 turn out when CSc1ccc(Oc2ccc(S(N)(=O)=O)cc2CN(C)C)cc1C was run?
**A.** inconclusive: 50 µM

**Q.** Which outcome does the source give for CN(C)c1ccc(C(=N)c2ccc(N(C)C)cc2)cc1 here?
**A.** inactive

**Q.** For CC(C)(C)c1cc(/C=C2\SC(N)=NC2=O)cc(C(C)(C)C)c1O, which AC50 is on record?
**A.** inconclusive: 89.9 µM

**Q.** With OC(CCl)CCl as the compound, how does the AC50 read?
**A.** inconclusive: 50 µM

**Q.** CC(C)CCCCCCOC(=O)C1CCCCC1C(=O)OCCCCCCC(C)C (configuration not stated) was tested. Which AC50 did it give?
**A.** inconclusive: 50 µM

**Q.** Cn1c([N+](=O)[O-])cnc1COC(N)=O was tested. Which outcome did it give?
**A.** inactive

**Q.** For c1c[nH]cn1, which AC50 is on record?
**A.** inconclusive: 50 µM

**Q.** With CCCCOC(=O)C(C)Oc1ccc(Oc2ccc(C(F)(F)F)cn2)cc1 (configuration not stated) as the compound, how does the outcome read?
**A.** inactive

**Q.** C=C1C2CCC(C2)C1(C)C (configuration not stated) was tested. Which AC50 did it give?
**A.** inconclusive: 50 µM

**Q.** Which AC50 does the source give for CCCCCCOCCO here?
**A.** inconclusive: 50 µM

**Q.** How did the AC50 turn out when CN(C[C@@H](CC[N+]12CCC(C3CCCCC3)(CC1)CC2)c1ccc(Cl)c(Cl)c1)C(=O)c1cc(C(F)(F)F)cc(C(F)(F)F)c1 was run?
**A.** inconclusive: 16.3 µM

**Q.** For CCCCCCc1ccc(N)cc1, which AC50 is on record?
**A.** active: 50 µM

**Q.** Which outcome does the source give for C=C[C@@]1(C)CC(=O)[C@]2(O)[C@@]3(C)[C@@H](O)CCC(C)(C)[C@@H]3[C@H](O)[C@H](OC(C)=O)[C@@]2(C)O1 here?
**A.** inactive

**Q.** For C(=C(c1ccccc1)c1ccccc1)c1ccccc1, which AC50 is on record?
**A.** active: 1.49 µM

**Q.** With CCCCCCCC[N+](C)(CCCCCCCC)CCCCCCCC as the compound, how does the AC50 read?
**A.** inconclusive: 9.92 µM

**Q.** CCCOc1ccc(S(=O)(=O)N2CCN(CC)CC2)cc1-c1nc2c(CC)n(Cc3ccccn3)nc2c(=O)[nH]1 was tested. Which outcome did it give?
**A.** inactive

**Q.** How did the AC50 turn out when CCCCc1ccc2c(n1)[C@@H](c1ccc(OC)cc1C[C@H](C)C(=O)O)[C@H](C(=O)O)[C@H]2c1ccc2c(c1)OCO2 was run?
**A.** inconclusive: 50 µM
